Experimental findings from PubChem BioAssay AID1508600 (Functional Genomics Laboratory (NCATS/FGL), 2020) are described below.

Among all 53,000 sequences or so, about 3,700 (7%) were called active.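 Rule for the calls: active = gene knockdowns whose robust z-score for IL-1 alpha signal is at least 2 or at most -2, so actives lie on both sides; inactive = the rest.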 This is one part of the list.

The test in a line: Components of the Cytosolic LPS Sensing Pathway: Gene Identification via Genome-wide siRNA Screen.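 Note: robust z of the log signal after scaling to non-targeting control siRNA wells of the plate.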 The note with it: RAW264.7 macrophages, IL-1a HTRF, actives lie on both sides, screened at 100 nM (by protocol), cells primed 5 h with Pam3CSK4 first. In outline: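 Cells (RAW264.7, 1×10^4 per well) were transfected with siRNA at 100 nM and cultured 48h at 37 degrees C. Pam3CSK4 was added for 5 hours; LipidA transfection followed for 24 hour. IL-1a was then measured by HTRF.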
As to GCACACAUCAAGAAACUUGTT against Mxi1, the z-score was inactive: 0.963.

With GGUGUCAAAAGUUUUCUAGTT against Tcf23, the z-score is inactive: 0.154.

For CCAUCUCUCCAAAGGGCUGTT against Olfr32, the z-score was inactive: 0.056.

For the sequence GCGAUGCUACUGAAAGCGATT against Catsper2, the z-score was inactive: 0.232.

As for GGGCAUUAAGACAAAGAGUTT against Fam3c, the z-score was inactive: 0.769.

Consider GGAACACAAAAGCAAAGAUTT against Prpf38b, for which the z-score is active: 2.2.

Turning to GGCUUUCAUCGUUUUUGCCTT against Rbm12, the z-score was inactive: -0.504.

On to GCCUACAACUACUGAAACCTT against Ifne, for which the z-score was inactive: 0.295.

As for GGAAGACUUUGGCUUUGAATT against Tfpt, the z-score was inactive: -0.165.

For the sequence CCAUUUAAACUAGAUCCCATT against Mid2, the z-score was inactive: 0.937.

On to GCUUUUCGGAGCUCUAUAUTT against Sipa1, for which the z-score is active: -2.23.

For the sequence CGGAACAUGGAGUUUAAGCTT against Slfnl1, the z-score is active: 2.3.

For CCAAACACAGUUGCACAGGTT against Atg4a, the z-score was inactive: 1.22.

GGAACAUUUCAACCGCCUGTT against Epop: the z-score was inactive: 0.223.

For the sequence GGAUCAUUGACAGUGAAUATT against Blk, the z-score is inactive: -1.35.

Take GCACUUUCGAGUGGAUGAATT against Hoxd1: the z-score is inactive: -1.05.

On to GGAGAAUUUGAAGCAACCUTT against Med14, for which the z-score is inactive: -0.395.

For the sequence GGGCAUCCGAAUUGACUCATT against Cnpy2, the z-score is inactive: -0.421.

For the sequence GGCCCAAGGAUCAAUUUAUTT against Zup1, the z-score was inactive: 0.914.

With GGGUUAAGAAAACUAGUGGTT against Nnat, the z-score is inactive: -0.777.

For the sequence GGUGUCUGGUUCAUAAAGGTT against Lcn4, the z-score is inactive: -0.344.

For the sequence GGCUCUGUAAAGUUCGAGGTT against Kcnip1, the z-score is inactive: -0.376.

Consider GGACAUGAUAACAUGGAUATT against Ubr1, for which the z-score is inactive: 0.628.

Turning to GGCUUUAAAGAAUGAUUCATT against Cfap97, the z-score is inactive: 0.197.

For the sequence GGAAAGCUUCUGAGUAAUGTT against Tfg, the z-score was inactive: 0.225.

As for GUCACAGUACCCAAAAUGUTT against Olfr979, the z-score was active: -2.42.

GCUCUUUAGACCAGGACAGTT against Olfr103: the z-score is inactive: 0.332.

Consider GGACAGUUGGCUUCCUUCATT against Adamts6, for which the z-score is inactive: -1.82.

Regarding CCCAUUUAGGUUUUUCCUATT against Pde6d, the z-score was inactive: 0.29.

Turning to GGAAGAGAGCUGUCAGUGATT against Pth, the z-score is inactive: 0.0839.

Turning to CCAGGAUUAUCACAGUGUCTT against Commd8, the z-score is inactive: -0.245.

With CCUCUUAGAUAGCACAUUATT against Epx, the z-score was inactive: -0.861.

On to GCUUCUGAUUAACCUCCAGTT against Olfr1390, for which the z-score was inactive: -1.49.

Regarding GGGUGUGUAUCUUACUAGUTT against Olfr791, the z-score is inactive: 0.14.

Consider GGAUGCUCUAACAGGAAGCTT against Slc26a1, for which the z-score was inactive: 0.525.

Take GGCUUGAGACUUAAAACGGTT against Lztfl1: the z-score was inactive: 0.583.

Take GGUAUUCUAAGAAGUCUUATT against Lmcd1: the z-score is inactive: 0.508.

Take GGCUCAUUGAGCACAUCAGTT against Ikzf5: the z-score was inactive: 0.253.

With UCAGUCGCAUCUCCAAAAATT against Olfr340, the z-score is inactive: 0.727.

Turning to GGAGAGAGAUGAAAUUUGATT against Kif26b, the z-score was inactive: 1.79.

Regarding GGAAGCAAGGAAAAUCAUGTT against Lpo, the z-score is inactive: -0.289.

Take CGUAAGUCAGUGAUGCUAUTT against Srp19: the z-score was inactive: 1.38.

As for GCCUUAUUUGAAAUACAGATT against Zbtb10, the z-score is inactive: 1.07.

Regarding GCAGAAUUGAGUCACCCAATT against Sp1, the z-score is active: -2.56.

GGAAACUUGUUGAAGAGAUTT against Ptprz1: the z-score is active: 2.37.

Consider GCCACAAUGUCCAAAAUUATT against Rab6a, for which the z-score was inactive: -0.271.

Regarding GGACACCAUGUGCUAGAGCTT against L1cam, the z-score is inactive: -0.286.

For GGAUUUUGUGGAUCCAUGGTT against Wars, the z-score is inactive: -1.2.

As to GGCCUCCUAACAAUUCAGCTT against Foxp1, the z-score was inactive: 0.0693.

As to GGAUAACCUUGAGUAGGUGTT against Olfr906, the z-score was inactive: 0.484.

For the sequence GGGAUCCCUUCUGGAAAAGTT against Dmrtc2, the z-score is inactive: 0.581.

Take GUCACUCUUUUUUAUGGAATT against Olfr485: the z-score was inactive: -1.48.

Regarding GCCACAUGUCAAACAAGAUTT against Tacc1, the z-score was inactive: -1.41.

As for GGCAAGCAGUCCAUAUUGUTT against Mapkap1, the z-score is inactive: -0.703.

On to GCGGAAAAAUUACUUUCUUTT against Tas2r107, for which the z-score was inactive: -2.

On to GGACUUCUACCCAGCGAUATT against P3h4, for which the z-score is inactive: -0.536.

In the case of GCCUCAGUGUCUGUUGGAATT against Tmem94, the z-score is inactive: 1.23.

Take GGAUAUGAUCAACGAAGUGTT against Calm1: the z-score was inactive: -0.155.

As to CCUAAAUCCUGCUAGGCGUTT against Cbln1, the z-score is inactive: -1.03.

As to GGAACCUCAUGUCUCACCUTT against Vegfb, the z-score is inactive: -0.661.

AUCAGUUUCCCUGAAAAGGTT against Pnma1: the z-score was inactive: 0.457.

With GCUUAGACGACUAGACCUGTT against Slit2, the z-score was inactive: -0.186.

Regarding GGGUUUCAAAAACAAACCATT against Phtf1, the z-score was inactive: 0.378.

For GGUUUCCAUCUGAAUAAAATT against Pgap6, the z-score was inactive: 0.279.

Turning to GGGCUUCUUCCUCGUCUCUTT against Ido1, the z-score was inactive: -0.949.

As to GGUUUUUAACUCAAUGUAGTT against Midn, the z-score was inactive: -0.785.

On to CCGACAGACUCACAUACUGTT against Trex1, for which the z-score was inactive: -0.942.

For the sequence GGGAAGAGUGAGGAUACGGTT against Mrps34, the z-score is inactive: -0.415.

As to GGCACUGAAUUCAGUGGCUTT against Slc22a19, the z-score is inactive: 0.331.

For the sequence CCUAAUGCAGUCCAGAUGGTT against Ccdc116, the z-score is inactive: -0.641.

With GGUACAUGGCCAUUGUCCATT against Tacr2, the z-score is inactive: -0.584.

On to GGAAUGAAGCCUGAACAGATT against Strc, for which the z-score is inactive: 0.151.

As to GGUUUUCAGCUAUCCUUGUTT against Tmem80, the z-score was inactive: -0.888.

Regarding GGACACAACAAGUCUUAUGTT against Prg2, the z-score is inactive: -0.876.

For the sequence GCAGGUACUAAGGUUCCUGTT against Apobec3, the z-score is inactive: 1.04.

GGAUUUGAAACAGAAAGAATT against Pde7a: the z-score was inactive: -1.03.

Regarding CCUUAAGCACCAUAAAUUATT against Kifbp, the z-score is inactive: 1.92.

On to GGGAGUUAGAUCUGUAUAATT against Ccdc172, for which the z-score is inactive: 0.478.

GGAGUCAUCGAGUUUCGAGTT against Trem2: the z-score was inactive: 1.07.

On to GGCUCGGACCAAAAAAAUUTT against Msantd3, for which the z-score is inactive: -1.33.

Take GCACAAUUUUAUAACUCGGTT against Lrrc49: the z-score is inactive: 0.457.

Consider GGGAAAGGACAAAAAAAAATT against Rnf41, for which the z-score is inactive: -1.08.

Regarding GGGACUUUUAAACUUGAACTT against Ube2n, the z-score was inactive: 0.434.

For GGCUGUCUUGAUUUUGAUUTT against C3ar1, the z-score is inactive: 0.296.

On to GGACAAGCAACGUAUGUUCTT against Cenpq, for which the z-score was inactive: 0.164.

For the sequence GCGGAAGUCGAAUCUGUCUTT against Aga, the z-score is inactive: -1.45.

For the sequence GCUGAACAAUUUUCAACAATT against Sclt1, the z-score is inactive: -0.958.

As for GCCUGUUACGUCAUCAAGATT against Gkn2, the z-score was inactive: 0.638.

Turning to GGAGAACAAGAUCUUACAGTT against Cby2, the z-score was inactive: -0.703.

CGAUUAUCCAGAGUGGAGCTT against Ankrd28: the z-score is inactive: 0.792.

Take GGACAUCUAUCAGUUUCUUTT against Tnfrsf21: the z-score is inactive: 0.806.

As to GGAACUGCUGUGGAGAAAGTT against Smg5, the z-score is inactive: -0.885.

In the case of GCUAGCGAUAACAAGAUUGTT against Hfm1, the z-score was inactive: -0.676.

Turning to GGGAUUACCUCCAGACACATT against Ccdc88c, the z-score is inactive: 0.0678.

Turning to GGUUCGAAAACUCAGCAAUTT against Drd3, the z-score is inactive: 0.881.

For the sequence GGAAGGUGAUGCACUAUUATT against B3galnt2, the z-score is inactive: 0.828.

For the sequence GGGUCUGGUGUUAUAUUUGTT against Slc26a10, the z-score was inactive: 0.0373.

Consider GGCAAAGCUGCUCUUUUCUTT against Dnttip1, for which the z-score was inactive: -1.23.

For the sequence GGGUUAGUCUGUUAGAUCATT against Snhg16, the z-score was inactive: 0.0541.

For GGGACAUGAGGAUUUGUCUTT against Six4, the z-score was inactive: 0.359.

On to GUACUGAGCAAGAUGCUGGTT against Sox18, for which the z-score was inactive: -1.74.

Turning to GGAUCAAGGCUGCUGUUCCTT against Pgk1, the z-score was inactive: 1.98.

For CCACCUGAUGAGUUUACCGTT against Lrriq4, the z-score is inactive: 0.427.

For the sequence GGUGGUGCCAAGAUGUUGUTT against Aste1, the z-score was active: 2.26.

Consider GGGAAGAGUUGGAUCGAUCTT against Shkbp1, for which the z-score is inactive: -0.0675.

Turning to CCUGCUUCUCUACAACCAUTT against Olfr1209, the z-score is inactive: -0.817.

For GGCUAAAAUAAGCAAUCUGTT against Optc, the z-score is inactive: -1.35.

With GCCCGUCGGAUAUAAGAUUTT against Cd247, the z-score was inactive: -0.351.
